Results from article PMC10724265.
No constants are given. Whether binding was seen depends on the method and setting. In cells and extracts the contact can be indirect. Some results given as binding are weak or reduced against the parent protein; the word gives no strength.

The chains behind the UniProt entries cited, without tags or fusion partners.
UniProt Q9H6L5: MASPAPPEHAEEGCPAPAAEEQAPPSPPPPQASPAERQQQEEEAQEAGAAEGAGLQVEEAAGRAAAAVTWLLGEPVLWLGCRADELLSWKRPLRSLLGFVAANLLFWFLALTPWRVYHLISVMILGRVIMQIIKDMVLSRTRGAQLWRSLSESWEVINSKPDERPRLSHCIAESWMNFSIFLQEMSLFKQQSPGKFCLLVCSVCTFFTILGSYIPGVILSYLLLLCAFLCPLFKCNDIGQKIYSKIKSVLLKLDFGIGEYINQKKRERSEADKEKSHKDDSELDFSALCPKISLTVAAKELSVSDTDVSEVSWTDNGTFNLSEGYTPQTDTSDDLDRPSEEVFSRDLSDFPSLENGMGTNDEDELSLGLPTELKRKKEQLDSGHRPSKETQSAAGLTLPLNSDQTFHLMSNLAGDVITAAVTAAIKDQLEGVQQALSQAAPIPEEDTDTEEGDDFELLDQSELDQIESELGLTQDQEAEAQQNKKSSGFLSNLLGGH

Key:
[1] = target: V1-FAM134B and V2-FAM134B (split Venus / half GFP fusions of FAM134B) (UniProt Q9H6L5); experiment: split reporter; bimolecular complementation affinity purification (BiCAP): V1- and V2-tagged copies co-transfected in HEK293T, reconstituted GFP precipitated with GFP-Trap beads from RIPA lysate; cells treated 6 h under basal, Torin1 or Torin1 + CK2 inhibitor conditions
[2] = target: V1-FAM134C and V2-FAM134C (split Venus / half GFP fusions of FAM134C) (UniProt Q86VR2); experiment: as above

V1-FAM134B and V2-FAM134B (split Venus / half GFP fusions of FAM134B) (from UniProt Q9H6L5 1-497)
binding [1]: binds

V1-FAM134C and V2-FAM134C (split Venus / half GFP fusions of FAM134C) (from UniProt Q86VR2 1-466)
binding [2]: binds
